Values from PubChem BioAssay AID720505 (Drosophila RNAi Screening Center, 2013).
Purpose: 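Fly regulators or components of the CRAC channel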 (primary screen). Cells: Drosophila S2R+ cells. Knock-down reagent: long dsRNA against Drosophila genes. Treatment: thapsigargin (2 µM) in calcium-free buffer to empty internal stores, then 2 mM calcium added back. Detection: 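Fluo-4 signal in 384-well plates read on a FLIPR after thapsigargin (2 µM, calcium-free) store depletion and 2 mM calcium add-back; unnormalised mean endpoint per well; screen run twice, selected wells retested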. Direction: calcium signal and retest calcium signal: higher = more calcium entry after store depletion. Call rule: 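About 1500 genes called as lowering calcium entry, by varying amounts, judged against per-plate control wells with STIM1 as positive and Rho1 as negative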. Calls: active = called as lowering calcium entry; inactive = not called.
The deposit covers about 20,000 reagents; this is a random part of those that have a named target and a result. Over the whole deposit, about 2,100 (10%) were called active. 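Raw plate signals without normalisation; calls rest on control-based scores that were not deposited; replicate 2 separates called from uncalled poorly.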 Reagent sequences are not shown. The record does not give: the amount of reagent, the time to read-out.

For CG1695 (GeneID 33046) [DRSC20538], the values are calcium signal, replicate 1 = 160; calcium signal, replicate 2 = 100; inactive.
Silencing of CG14854 (GeneID 41761) [DRSC14978] came out at: calcium signal, replicate 1 = 107; calcium signal, replicate 2 = 153; inactive.
After knock-down of CG3032 (GeneID 31648) [DRSC18266], the screen gave calcium signal, replicate 1 = 235; calcium signal, replicate 2 = 112; inactive.
For Cpr97Ea (GeneID 43258) [DRSC15974] the deposit lists calcium signal, replicate 1 = 152; calcium signal, replicate 2 = 159; inactive.
Silencing of Acat2 (GeneID 38147) [DRSC08630] came out at: calcium signal, replicate 1 = 88.5; calcium signal, replicate 2 = 106; inactive.

In a second layout: 2 of the entries above.
Gene	dsRNA	calcium signal, replicate 1	calcium signal, replicate 2	retest calcium signal, replicate 1	retest calcium signal, replicate 2	call
Cpr97Ea (GeneID 43258)	DRSC15974	152	159			inactive
Acat2 (GeneID 38147)	DRSC08630	88.5	106			inactive

More results follow.
CG5715 (GeneID 42895) [DRSC15860] gave calcium signal, replicate 1 = 216; calcium signal, replicate 2 = 145; inactive.
After knock-down of Cpr92A (GeneID 42333) [DRSC16000], the screen gave calcium signal, replicate 1 = 176; calcium signal, replicate 2 = 141; inactive.
B-H1 (GeneID 32724) [DRSC19334] gave calcium signal, replicate 1 = 80.7; calcium signal, replicate 2 = 139; retest calcium signal, replicate 1 = 6059; retest calcium signal, replicate 2 = 115; inactive.
B-H1 (GeneID 32724) [DRSC21922] scored calcium signal, replicate 1 = 80.2; calcium signal, replicate 2 = 239; inactive.
With knock-down of Dhpr (GeneID 39050) [DRSC11135] the results were calcium signal, replicate 1 = 126; calcium signal, replicate 2 = 97.7; inactive.
shop (GeneID 32878) [DRSC20030] gave calcium signal, replicate 1 = 157; calcium signal, replicate 2 = 126; inactive.
After knock-down of yip2 (GeneID 34313) [DRSC03640] the results were calcium signal, replicate 1 = 183; calcium signal, replicate 2 = 169; inactive.
